According to patent US20130045184A1 (published 2013):
Results are given in words; binding and its absence hold for the method and conditions named. A result given as binding can be weak or reduced; the word gives no strength.

Tests used:
[1] = target: FA-1 antigen on murine sperm (murine); experiment: in vitro sperm binding assay, staining, light microscopy
[2] = target: FA-1 antigen on murine sperm (murine); experiment: in vitro binding of scFv-expressing lactobacilli to mouse sperm, light micrograph

B1: scFv J102 (scFv)
scFv: MAEVQLLESGGGLVQPGGSLRLSCAASGFTFSDHDMHWVRQAPGKGLEWVSGISWKSDSMAYRDSVKGRFTISRDNSKNTLYLQMNSLRAEDTAVYYCARDQEHFDFDYWGQGTLVTVSSGSAGGGGSGGGGSGGGGSDIVLTQPPSASGTPGQRVTISCSGSSSNLGSNTVNWYQQLPGKAPKLLIYDNNQRPSGVPDRFSGSKSGTSASLAISGLRSEDEADYYCAAWDDSLSGLVFGTGTKLTVL
notes: Human-derived scFv from a phage display library; also called Clone J102
binding [1]: binds | binding [2]: binds
